The values that follow come from article PMC11727564.

Amino acid sequences for entries named in this document (tags omitted).
UniProt O95747: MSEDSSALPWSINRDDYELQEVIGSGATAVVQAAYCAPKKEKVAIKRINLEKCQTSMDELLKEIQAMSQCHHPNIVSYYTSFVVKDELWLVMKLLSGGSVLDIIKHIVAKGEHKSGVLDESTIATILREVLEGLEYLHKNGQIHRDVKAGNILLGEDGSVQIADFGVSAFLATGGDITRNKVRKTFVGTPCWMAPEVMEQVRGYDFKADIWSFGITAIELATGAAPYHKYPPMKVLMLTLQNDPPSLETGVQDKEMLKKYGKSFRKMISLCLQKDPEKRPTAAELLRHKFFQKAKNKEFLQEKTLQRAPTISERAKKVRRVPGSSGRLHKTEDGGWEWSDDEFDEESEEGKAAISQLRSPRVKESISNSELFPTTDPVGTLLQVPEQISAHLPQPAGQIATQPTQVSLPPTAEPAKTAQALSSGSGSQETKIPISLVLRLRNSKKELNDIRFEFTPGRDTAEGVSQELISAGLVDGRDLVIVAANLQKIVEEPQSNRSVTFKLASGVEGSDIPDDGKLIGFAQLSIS

This experiment concerns the target Flag-OXSR1 (Oxidative Stress Responsive Kinase 1) (UniProt O95747). In words: co-IP; HEK-293 cells co-transfected with Flag-OXSR1 and HA-RELT constructs (5 µg each); lysates 24 h after transfection; FLAG immunoprecipitation kit; Western blot with anti-HA and anti-FLAG.

Residue numbers refer to the chain shown, from its start. No constants are given. Whether binding was seen depends on the method and setting. In cells and extracts the contact can be indirect. Some results given as binding are weak or reduced against the parent protein; the word gives no strength. Where a sequence is shown, tags or fusion partners need not be part of it.

B1: HA-RELT (Receptor Expressed in Lymphoid Tissues), wild type (receptor, UniProt Q969Z4 26-430)
chain: STTLWQCPPGEEPDLDPGQGTLCRPCPPGTFSAAWGSSPCQPHARCSLWRRLEAQVGMATRDTLCGDCWPGWFGPWGVPRVPCQPCSWAPLGTHGCDEWGRRARRGVEVAAGASSGGETRQPGNGTRAGGPEETAAQYAVIAIVPVFCLMGLLGILVCNLLKRKGYHCTAHKEVGPGPGGGGSGINPAYRTEDANEDTIGVLVRLITEKKENAAALEELLKEYHSKQLVQTSHRPVSKLPPAPPNVPHICPHRHHLHTVQGLASLSGPCCSRCSQKKWPEVLLSPEAVAATTPVPSLLPNPTRVPKAGAKAGRQGEITILSVGRFRVARIPEQRTSSMVSEVKTITEAGPSWGDLPDSPQPGLPPEQQALLGSGGSRTKWLKPPAENKAEENRYVVRLSESNLVI
Turning to B1, the binding entry is “binds”.

B2: HA-RELT RARA mutant (RFRV → RARA at amino acids 349–352) (receptor, UniProt Q969Z4 26-430)
chain: B1 chain with F325A, V327A
Consider B2, for which the binding entry is on record as “no binding”.
